Experimental findings from paper PMC11957706 are described below.

Protein sequences, listed by entry. Tags and fused reporters are not part of them.
UniProt Q13114: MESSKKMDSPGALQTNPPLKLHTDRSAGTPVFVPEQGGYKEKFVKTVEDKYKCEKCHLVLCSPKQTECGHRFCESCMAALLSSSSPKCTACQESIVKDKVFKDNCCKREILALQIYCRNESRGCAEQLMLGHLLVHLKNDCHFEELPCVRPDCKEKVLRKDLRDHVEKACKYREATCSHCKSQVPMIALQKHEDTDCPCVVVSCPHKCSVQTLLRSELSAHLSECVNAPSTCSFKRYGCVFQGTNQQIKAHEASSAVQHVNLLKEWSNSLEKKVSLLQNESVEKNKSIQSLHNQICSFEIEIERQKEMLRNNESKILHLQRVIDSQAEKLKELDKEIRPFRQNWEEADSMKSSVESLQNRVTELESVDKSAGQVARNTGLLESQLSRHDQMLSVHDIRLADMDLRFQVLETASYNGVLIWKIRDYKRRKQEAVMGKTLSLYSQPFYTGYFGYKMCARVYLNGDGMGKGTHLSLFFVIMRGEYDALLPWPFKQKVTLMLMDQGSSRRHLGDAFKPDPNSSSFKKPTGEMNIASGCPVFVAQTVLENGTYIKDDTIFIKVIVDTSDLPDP

Results are given in words; binding and its absence hold for the method and conditions named. Binding seen in cells or lysates may run through a third protein. Here binding means that the protein was enriched with, or labelled near, the bait; the list need not be complete.

For the experiment, the target named is Flag-tagged TRAF3 (TNF receptor-associated factor 3) expressed in U87MG cells (UniProt Q13114). Description: affinity purification with mass spectrometry; Flag-TRAF3 transfected into U87MG cells; lysate incubated with anti-Flag-Tag antibody; precipitate resolved by SDS-PAGE, bands seen by silver staining identified by tandem MS/MS.

B1: enoyl-CoA hydratase 1 (ECH1), endogenous in U87MG cells (protein, UniProt Q13011 34-328)
chain: TGSSAQEEASGVALGEAPDHSYESLRVTSAQKHVLHVQLNRPNKRNAMNKVFWREMVECFNKISRDADCRAVVISGAGKMFTAGIDLMDMASDILQPKGDDVARISWYLRDIITRYQETFNVIERCPKPVIAAVHGGCIGGGVDLVTACDIRYCAQDAFFQVKEVDVGLAADVGTLQRLPKVIGNQSLVNELAFTARKMMADEALGSGLVSRVFPDKEVMLDAALALAAEISSKSPVAVQSTKVNLLYSRDHSVAESLNYVASWNMSMLQTQDLVKSVQATTENKELKTVTFSKL
With B1, the binding result is “binds”.
